Percent effect of library compounds

Mtb cholesterol medium: 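Growth of Mycobacterium tuberculosis over 4 days (cholesterol / DPPC medium with tyloxapol); the read-out is not stated. Tested at 50 µM. The record gives no direction; compounds that gave an IC50 in retests scored well above the rest, so higher reads as more growth inhibition. About 69,000 compounds were tested under these conditions; 0.54% (about 370) showed 50% or more at least once.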
Mtb glucose medium: 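Phenotypic screen: M. tuberculosis growth, glucose 7H9 medium, 3 days; the read-out is not stated. Tested at 50 µM. Higher reads as more growth inhibition (inferred: compounds with an IC50 in retests scored well above the rest). About 69,000 compounds were tested under these conditions; 1.1% (about 760) showed 50% or more at least once.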

Results are given as percent effect.
The controls that fix the scale are not given in the record; negative values are as filed.
Compounds were drawn at random from those tested, without regard to their results.
Two or more numbers in one place are separate tests of the same structure; such repeats can differ widely.

| # | Compound | Mtb cholesterol medium | Mtb glucose medium |
|---|---|---|---|
| 1 | `Cc1cnc(CC2COCCN(C(=O)CN3CCCCC3)C2)cn1` (stereo not drawn) | 14.97% | 4.465% |
| 2 | `O=C(O)C(F)(F)F.O=C(O)C(F)(F)F.c1cnc(N2CCOCC3(CCCN(CC4CC4)C3)C2)cn1` (stereo not drawn) | 12.24% | 4.059% |
| 3 | `COCCN(CC(F)F)c1cc(C(F)(F)F)nc2ncnn12` | -0.3068% | -14.63% & -7.654% |
| 4 | `c1ccc(CCN2CCC(OCC3CCCCO3)CC2)nc1` (stereo not drawn) | -0.1149% | 1.094% |
| 5 | `CCCc1cc(C(=O)NCCN2CCCS2(=O)=O)[nH]n1` | -16.15% | -4.583% |
| 6 | `CS(=O)(=O)N1CCC(C(=O)NC(Cc2ccsc2)c2cccnc2)CC1` (stereo not drawn) | -50.44% | -29.02% |
| 7 | `COCCn1cc2c(n1)C(CNCc1ccc(F)cc1)OCC2.O=C(O)C(F)(F)F.O=C(O)C(F)(F)F` (stereo not drawn) | -3.68% & 22.45% | -25.63% |
| 8 | `COc1ccc(F)c(NCC(C)(C)S(C)(=O)=O)c1` | 0.9196% | -10.35% |
| 9 | `c1cc(CNc2ncc(-c3cnccn3)c(C3CC3)n2)ccn1` | -1.723% | 3.889% |
| 10 | `[H][C@]12CC[C@]([H])(CN(C)C1)N(C(=O)c1cc(OC)ccc1OC)C2` | -18.41% | -37.83% & -8.271% |
| 11 | `CCCC(=O)N1Cc2ccccc2CC2(CCN(C)C2)C1` (stereo not drawn) | -3.478% | 18.36% |
| 12 | `Cc1cc(S(=O)(=O)N2CCCc3cc(Br)ccc32)sc1C(=O)O` | -7.509% & 1.552% | 14.59% |
| 13 | `O=C(c1ccn(-c2cccc(F)c2)n1)N1CCN(CC2CC2)CC1` | -10.27% | 0.9425% |
| 14 | `COc1ccc2c(c1)OCC(CNC(=O)c1cc[nH]c1C)C2` (stereo not drawn) | -2.805% | -10.6% |
| 15 | `COc1ccnc(NC(=O)c2cscn2)c1` | 9.761% | 21.68% |
| 16 | `CN(C)CC1(O)CCN(S(=O)(=O)c2ccc(Cl)cc2)C1` (stereo not drawn) | -2.488% | -4.569% |
| 17 | `COc1ccc(CCN(C)C2CCCN(Cc3noc(C)n3)C2)cc1` (stereo not drawn) | -18.14% | -60.97% & -9.06% |
| 18 | `CN(CCc1ccccc1)Cc1nc(Cc2cccc(F)c2)no1` | 54.55% | 41.74% |
| 19 | `CCNC(=O)CNC(=O)Nc1c(F)cc(F)cc1-c1ccccc1` | 37.65% | 10.7% |
| 20 | `O=C(CCS(=O)(=O)C1CCCC1)N1CCCC(n2ccnc2)C1` (stereo not drawn) | -5.762% | 6.318% |
| 21 | `CCOCC1CCCN(C(=O)NCc2cn3c(C)cccc3n2)C1` (stereo not drawn) | -7.779% | 6.735% |
| 22 | `CCc1noc(C)c1C(=O)Nc1cnn(CC(=O)NC2CCCC2)c1` | -1.832% & -1.799% | -5.385% |
| 23 | `Cc1nc(CN2CC(CO)Oc3ccccc32)sc1C` (stereo not drawn) | 13.73% | -1.458% & 7.566% |
| 24 | `COCCNC(=O)c1sc(Nc2ccc(Cl)cn2)nc1C` | -4.359% | 9.181% |
| 25 | `Cc1cccc(C)c1NCc1noc(C2CC2)n1` | -6.418% | 1.447% & 6.724% |
| 26 | `CCC(NC(=O)NCc1cccc(N(C)C)n1)c1nccs1` (stereo not drawn) | -22.54% | -15.53% |
| 27 | `Cc1cc(C)cc(CN2CCCC2c2noc(C)n2)c1` (stereo not drawn) | 19.17% | 25.54% |
| 28 | `COc1ccc(CN2Cc3cnn(C)c3C(COCC3CC3)C2)cc1` (stereo not drawn) | 1.377% & -2.508% | 9.58% & 1.148% |
| 29 | `CC1c2ncc(CNC(=O)C3CC3)n2CCN1Cc1ccsc1.O=C(O)C(F)(F)F` (stereo not drawn) | -44.57% | -13.88% |
| 30 | `NC(=O)c1cc(C2CCCN(C(=O)CCc3ccsc3)C2)n[nH]1` (stereo not drawn) | -14.11% | -13.93% |
| 31 | `CC(C)c1ocnc1C(=O)Nc1cccc(Cn2ccccc2=O)c1` | -4.109% | -22.07% |
| 32 | `Cc1ccc(OC2(C(=O)NC(C)Cc3ccsc3)CCNCC2)cc1` (stereo not drawn) | 2.533% | 7.822% |
| 33 | `CN(C)Cc1ccnc(NS(=O)(=O)CCc2ccccc2)c1` | 23.67% | -9.328% |
| 34 | `O=C(CNC(=O)Nc1c(F)cc(F)cc1-c1ccccc1)NC1CC1` | 11.9% | -9.509% |
| 35 | `Cc1ccc(-c2nc(CNC(C)CCO)[nH]c2-c2ccccn2)cc1` (stereo not drawn) | -10.7% | -22.87% |
| 36 | `O=C1CCOCCN1Cc1ccc(Cl)c(F)c1` | -40.05% | -9.476% & -6.621% |
| 37 | `Cc1cccc(C2CCN(S(=O)(=O)c3cn(C)cn3)CC2)n1` | -24.92% | -7.769% |
| 38 | `CSc1nnc(N(CCC#N)CCC#N)s1` | -21.37% | -23.45% & -3.07% |
| 39 | `O=C(O)C(F)(F)F.[H][C@]12CN(C(=O)C3CCC3)C[C@@]1([H])C(=O)N(Cc1ccncc1)C2` | -15.31% | 1.629% |
| 40 | `Cc1ccc(CN(C)C(=O)CN2CCc3ccccc3C2)o1` | 13.23% | -0.7963% |
| 41 | `Cc1cc(CN(Cc2cccnc2)CC2CCCO2)on1` (stereo not drawn) | 4.409% | 16.87% |
| 42 | `Cc1nc(CNC2CCN(Cc3ccccc3)C2)sc1C` (stereo not drawn) | 15.89% | 20.54% |
| 43 | `O=C(CC1CCCC1)N1CCC2(CC1)[C@H](O)C[C@@H]2O` | -13.82% | -9.598% |
| 44 | `Cc1nc(C)n(CC(=O)N2CCc3ncc(Cl)cc3C2)n1` | 1.94% | 10.28% |
| 45 | `CCCN1CCCC2(CCN(Cc3noc(C4CCCC4)n3)C2)C1=O` (stereo not drawn) | -26.65% & 8.146% | -12.66% |
| 46 | `O=S(=O)(C1CC1)N1CCC2(COCc3cnc(NCC4CC4)nc32)C1` (stereo not drawn) | -3.392% | -9.918% |
| 47 | `COc1ccnc(N2CCC3(CCCN(C(C)C)C3=O)C2)n1` (stereo not drawn) | 2.129% | 22.73% |
| 48 | `CC(=O)NCC(=O)N1CCC2(CC1)C(=O)N(CC1CC1)c1ccccc12` | 1.333% | 7.345% |
| 49 | `Cc1noc(CN2CC=C(c3cnn(C4CCS(=O)(=O)C4)c3)CC2)n1` (stereo not drawn) | -18.94% | -17.17% |
| 50 | `COc1coc(C(=O)Nc2nc(-c3cccnc3)cs2)cc1=O` | -9.908% | -0.8451% |
| 51 | `CC(C)(C)OC(=O)NCCC(=O)NCC(O)c1cccc(F)c1` (stereo not drawn) | -8.097% & -18.56% | -14.38% |
| 52 | `COc1ccc(C(C)NCc2cnnn2C)cc1F` (stereo not drawn) | -10.27% | -29.06% |
| 53 | `Nc1no[n+]([O-])c1C(=O)NCc1ccco1` | -0.5582% & -8.94% | -29.11% |
| 54 | `O=C1COc2cc(C(=O)NS(=O)(=O)c3ccc(F)cc3F)ccc2N1` | 2.789% | 15.85% |
| 55 | `O=C(O)C(F)(F)F.[H][C@@]12CCN(Cc3cc(C)on3)C[C@]1(C(=O)NCCOC)CCO2` | -8.693% | 5.732% |
| 56 | `Cc1cc(C(=O)N[C@@H]2CCC[C@@H](N3CCOCC3)[C@@H]2O)no1` | 11.45% | 24% |
| 57 | `O=C(NC1CC1)C1CNCCN1C(=O)CCc1ccc2c(c1)OCO2` (stereo not drawn) | -3.202% | -12.01% |
| 58 | `NC(=O)NC(=O)CCn1ccc(-c2ccsc2)n1` | -6.166% | 5.715% & -9.68% |
| 59 | `Cc1ncsc1-c1nnc(C2CCN(Cc3cccc(Cl)c3)CC2)o1` | -0.1681% | 6.51% |
| 60 | `Fc1ccc(CN2CCC3(CCN(Cc4nccs4)CC3)C2)cc1.O=C(O)C(F)(F)F.O=C(O)C(F)(F)F` | -8.805% | -14.01% & -19.3% |
| 61 | `Cc1cc(N2CCN(C(=O)CCc3scnc3C)CC2)cc(C)n1` | -14.26% | -6.717% & 10.09% |
| 62 | `[H][C@]12CC[C@]([H])(CN(Cc3snnc3C)C1)N(Cc1ccccc1)C2` | -10.84% | -12.07% |
| 63 | `Cc1ccc(C(=O)NC2CCCN(c3ncccn3)C2)cn1` (stereo not drawn) | -19.44% | -1.848% |
| 64 | `Cc1cc(C)c2nc(C3CC3)cc(C(=O)N3CCCC3C(N)=O)c2c1` (stereo not drawn) | -15.04% | -0.7142% |
| 65 | `O=C(O)C(F)(F)F.[H][C@]12CCC[C@@]1(COc1cccnc1)CN(S(=O)(=O)N(C)C)C2` | -9.839% | 19.39% |
| 66 | `CSCCC(NC(=O)c1nc(SC)ncc1Cl)C(=O)O` (stereo not drawn) | -4.33% | 14.53% |
| 67 | `CCN(CC)S(=O)(=O)NC(C)C(=O)N(C)C` (stereo not drawn) | -9.008% | 3.818% & 0.4508% |
| 68 | `CCCn1ccnc1CN1C[C@@H](CN2CCCN(C)CC2)[C@@H](CO)C1` | -17.12% | -14.25% |
| 69 | `CS(=O)(=O)c1ccc(CNC(=O)N2CCC(c3ccccc3)CC2)cc1` | 2.421% | 1.798% |
| 70 | `COCC(=O)N1CCN(C(C)c2ncc(-c3ccccc3)o2)CC1` (stereo not drawn) | -0.4533% | -5.649% |

For reference, 5 entries once more:

Compound	Mtb cholesterol medium	Mtb glucose medium
Cc1cc(C(=O)N[C@@H]2CCC[C@@H](N3CCOCC3)[C@@H]2O)no1	11.45%	24%
O=C(c1ccn(-c2cccc(F)c2)n1)N1CCN(CC2CC2)CC1	-10.27%	0.9425%
Fc1ccc(CN2CCC3(CCN(Cc4nccs4)CC3)C2)cc1.O=C(O)C(F)(F)F.O=C(O)C(F)(F)F	-8.805%	-14.01% & -19.3%
O=C(O)C(F)(F)F.[H][C@]12CCC[C@@]1(COc1cccnc1)CN(S(=O)(=O)N(C)C)C2	-9.839%	19.39%
Cc1cnc(CC2COCCN(C(=O)CN3CCCCC3)C2)cn1 (stereo not drawn)	14.97%	4.465%

Measurements from “University of Dundee, Small-Polar-MMV Screening Library” (2021), ChEMBL document CHEMBL3988442.